Laboratory results as given in paper doi:10.1101/259481.
These are yes or no findings as the source states them, for the method shown. Some entries that bind do so weakly or less than the wild type.

By UniProt entry, the sequences of proteins in these tests, tags left out. Where a name states a change or a piece, a line headed by the entry shows the natural chain unless it says otherwise. Residues count along the entry.
laminin alpha 4 LG domain recombinant protein (Q16363, residues 826-1816): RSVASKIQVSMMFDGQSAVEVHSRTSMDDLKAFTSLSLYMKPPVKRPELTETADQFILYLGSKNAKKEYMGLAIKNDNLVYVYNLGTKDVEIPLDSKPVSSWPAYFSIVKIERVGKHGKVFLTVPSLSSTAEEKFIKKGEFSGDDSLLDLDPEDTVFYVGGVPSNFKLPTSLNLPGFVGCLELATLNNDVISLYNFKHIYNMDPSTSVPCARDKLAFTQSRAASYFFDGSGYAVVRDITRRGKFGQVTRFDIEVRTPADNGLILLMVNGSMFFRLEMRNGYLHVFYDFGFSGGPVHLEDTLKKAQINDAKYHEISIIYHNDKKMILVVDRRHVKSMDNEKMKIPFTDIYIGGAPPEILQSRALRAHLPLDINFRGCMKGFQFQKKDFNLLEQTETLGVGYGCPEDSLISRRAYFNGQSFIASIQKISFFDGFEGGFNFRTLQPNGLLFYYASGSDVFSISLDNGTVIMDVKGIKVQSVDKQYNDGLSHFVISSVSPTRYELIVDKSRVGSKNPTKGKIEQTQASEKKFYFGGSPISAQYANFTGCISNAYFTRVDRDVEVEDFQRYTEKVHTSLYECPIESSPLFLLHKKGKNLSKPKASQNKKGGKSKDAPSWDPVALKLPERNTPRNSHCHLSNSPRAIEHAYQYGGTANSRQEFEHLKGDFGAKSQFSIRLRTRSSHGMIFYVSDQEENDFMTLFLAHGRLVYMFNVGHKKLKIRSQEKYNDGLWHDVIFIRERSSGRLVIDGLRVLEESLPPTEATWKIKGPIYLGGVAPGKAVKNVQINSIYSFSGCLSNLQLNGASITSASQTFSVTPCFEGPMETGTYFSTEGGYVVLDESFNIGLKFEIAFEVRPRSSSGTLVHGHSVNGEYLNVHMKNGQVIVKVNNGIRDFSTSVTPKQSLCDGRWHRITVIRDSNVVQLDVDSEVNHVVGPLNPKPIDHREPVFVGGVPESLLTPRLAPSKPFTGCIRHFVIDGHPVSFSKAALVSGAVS
laminin-derived peptide α4_(1408-1434) (Q16363, residues 1408-1434): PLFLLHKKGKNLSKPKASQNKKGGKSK
laminin-derived peptide α4_(1521-1543) (Q16363, residues 1521-1543): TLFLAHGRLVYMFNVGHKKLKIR
UniProt P24043: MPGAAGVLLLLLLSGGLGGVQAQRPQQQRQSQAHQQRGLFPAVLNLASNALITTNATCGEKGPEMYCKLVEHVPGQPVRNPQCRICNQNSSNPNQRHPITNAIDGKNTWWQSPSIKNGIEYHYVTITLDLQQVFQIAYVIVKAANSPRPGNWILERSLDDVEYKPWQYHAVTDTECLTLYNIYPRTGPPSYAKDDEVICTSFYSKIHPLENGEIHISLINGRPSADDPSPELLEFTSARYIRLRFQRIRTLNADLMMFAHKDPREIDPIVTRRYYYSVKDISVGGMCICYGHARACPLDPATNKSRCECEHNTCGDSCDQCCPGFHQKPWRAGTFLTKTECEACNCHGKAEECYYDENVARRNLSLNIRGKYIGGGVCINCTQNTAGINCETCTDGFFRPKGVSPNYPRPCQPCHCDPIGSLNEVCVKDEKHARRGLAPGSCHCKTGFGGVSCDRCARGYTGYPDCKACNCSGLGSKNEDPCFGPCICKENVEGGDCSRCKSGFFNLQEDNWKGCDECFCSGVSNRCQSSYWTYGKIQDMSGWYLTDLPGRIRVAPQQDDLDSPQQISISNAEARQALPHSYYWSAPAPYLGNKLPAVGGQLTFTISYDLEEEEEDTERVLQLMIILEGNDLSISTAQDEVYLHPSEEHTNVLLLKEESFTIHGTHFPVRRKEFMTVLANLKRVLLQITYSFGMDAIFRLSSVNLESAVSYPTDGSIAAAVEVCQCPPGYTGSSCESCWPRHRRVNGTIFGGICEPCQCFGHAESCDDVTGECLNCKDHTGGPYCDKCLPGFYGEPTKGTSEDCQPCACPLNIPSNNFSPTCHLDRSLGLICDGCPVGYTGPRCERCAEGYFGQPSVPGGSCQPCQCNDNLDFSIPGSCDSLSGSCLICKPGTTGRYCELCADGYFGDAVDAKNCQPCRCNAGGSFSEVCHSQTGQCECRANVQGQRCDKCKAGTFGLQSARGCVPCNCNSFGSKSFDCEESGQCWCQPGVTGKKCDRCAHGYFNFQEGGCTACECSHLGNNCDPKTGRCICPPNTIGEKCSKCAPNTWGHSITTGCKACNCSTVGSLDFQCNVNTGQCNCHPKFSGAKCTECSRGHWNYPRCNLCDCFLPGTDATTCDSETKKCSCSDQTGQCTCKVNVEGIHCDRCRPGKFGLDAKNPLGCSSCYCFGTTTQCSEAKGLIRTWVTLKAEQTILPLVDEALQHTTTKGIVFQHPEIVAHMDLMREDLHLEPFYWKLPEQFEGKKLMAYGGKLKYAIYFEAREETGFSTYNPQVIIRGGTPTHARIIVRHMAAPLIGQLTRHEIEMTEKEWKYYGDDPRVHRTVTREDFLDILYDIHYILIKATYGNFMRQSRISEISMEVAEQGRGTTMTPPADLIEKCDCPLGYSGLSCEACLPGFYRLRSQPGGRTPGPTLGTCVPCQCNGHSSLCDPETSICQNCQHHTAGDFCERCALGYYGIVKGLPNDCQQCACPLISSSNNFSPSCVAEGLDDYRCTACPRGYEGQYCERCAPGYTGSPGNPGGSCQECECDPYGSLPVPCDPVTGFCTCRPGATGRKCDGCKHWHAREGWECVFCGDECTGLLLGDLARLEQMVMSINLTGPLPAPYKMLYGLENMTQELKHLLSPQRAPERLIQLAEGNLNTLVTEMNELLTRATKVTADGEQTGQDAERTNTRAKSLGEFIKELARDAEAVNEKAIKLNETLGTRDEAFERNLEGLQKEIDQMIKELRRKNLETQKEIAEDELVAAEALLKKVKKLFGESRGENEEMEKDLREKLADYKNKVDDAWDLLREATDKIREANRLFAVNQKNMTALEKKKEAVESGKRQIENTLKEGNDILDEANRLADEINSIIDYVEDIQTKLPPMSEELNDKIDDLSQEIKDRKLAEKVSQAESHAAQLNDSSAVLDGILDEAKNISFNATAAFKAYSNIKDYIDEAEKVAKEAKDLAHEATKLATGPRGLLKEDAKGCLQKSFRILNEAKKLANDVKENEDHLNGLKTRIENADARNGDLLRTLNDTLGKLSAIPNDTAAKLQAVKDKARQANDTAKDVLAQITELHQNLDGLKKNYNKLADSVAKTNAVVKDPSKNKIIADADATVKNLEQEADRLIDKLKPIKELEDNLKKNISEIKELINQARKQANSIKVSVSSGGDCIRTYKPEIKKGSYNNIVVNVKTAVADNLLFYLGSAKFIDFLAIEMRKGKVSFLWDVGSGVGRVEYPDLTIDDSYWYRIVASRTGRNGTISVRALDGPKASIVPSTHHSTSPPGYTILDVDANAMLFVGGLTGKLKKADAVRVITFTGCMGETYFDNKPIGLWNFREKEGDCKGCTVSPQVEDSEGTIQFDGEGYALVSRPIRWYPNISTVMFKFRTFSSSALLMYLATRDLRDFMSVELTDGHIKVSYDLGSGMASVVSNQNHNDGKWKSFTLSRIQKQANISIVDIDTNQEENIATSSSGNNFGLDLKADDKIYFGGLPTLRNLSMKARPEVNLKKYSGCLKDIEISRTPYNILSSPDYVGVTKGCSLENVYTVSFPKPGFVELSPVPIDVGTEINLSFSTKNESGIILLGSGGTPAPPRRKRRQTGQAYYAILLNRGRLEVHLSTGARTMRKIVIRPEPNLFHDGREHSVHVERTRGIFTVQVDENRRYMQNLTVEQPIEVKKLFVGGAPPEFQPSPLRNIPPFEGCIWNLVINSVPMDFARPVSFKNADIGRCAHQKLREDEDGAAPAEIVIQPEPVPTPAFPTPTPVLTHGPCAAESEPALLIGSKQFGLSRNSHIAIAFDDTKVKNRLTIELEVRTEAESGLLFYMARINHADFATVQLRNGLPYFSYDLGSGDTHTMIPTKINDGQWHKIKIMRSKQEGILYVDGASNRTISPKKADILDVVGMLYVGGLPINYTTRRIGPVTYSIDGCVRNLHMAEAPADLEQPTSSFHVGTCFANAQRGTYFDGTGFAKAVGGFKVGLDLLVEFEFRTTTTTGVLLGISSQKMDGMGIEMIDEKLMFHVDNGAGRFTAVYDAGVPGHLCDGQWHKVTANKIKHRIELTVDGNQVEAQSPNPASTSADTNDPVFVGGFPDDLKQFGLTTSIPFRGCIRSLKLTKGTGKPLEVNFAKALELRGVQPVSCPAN

T1: laminin-derived peptide α5_(3312-3325) (human) (UniProt O15230)
T1 sequence (peptide): ARKASRRSRQPARH

T2: laminin-derived peptide α5_(3539-3550) (human) (UniProt O15230)
T2 sequence (peptide): TLPDVGLELEVR

T3: laminin-derived peptide α3_(3031-3043) (human) (UniProt Q16787)
T3 sequence (peptide): KNSFMALYLSKGR

T4: laminin-derived peptide α3_(2932-2951) (human) (UniProt Q16787)
T4 sequence (peptide): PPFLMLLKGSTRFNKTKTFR

T5: laminin alpha 5 LG domain recombinant protein (human) (UniProt O15230)
T5 sequence: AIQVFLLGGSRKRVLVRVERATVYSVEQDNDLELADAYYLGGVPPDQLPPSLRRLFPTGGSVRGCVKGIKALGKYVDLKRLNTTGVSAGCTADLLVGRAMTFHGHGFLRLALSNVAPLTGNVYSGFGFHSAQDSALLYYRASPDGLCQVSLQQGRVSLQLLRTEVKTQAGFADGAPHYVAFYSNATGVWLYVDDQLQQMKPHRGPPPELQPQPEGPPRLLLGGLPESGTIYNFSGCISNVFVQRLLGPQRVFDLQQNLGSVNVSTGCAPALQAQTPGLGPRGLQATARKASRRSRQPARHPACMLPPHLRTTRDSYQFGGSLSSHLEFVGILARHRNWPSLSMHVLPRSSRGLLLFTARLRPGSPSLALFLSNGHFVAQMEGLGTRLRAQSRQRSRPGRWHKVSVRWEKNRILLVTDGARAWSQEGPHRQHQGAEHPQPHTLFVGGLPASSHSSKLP

T6: recombinant laminin α3_(2928-3150) protein (human) (UniProt Q16787)
T6 sequence: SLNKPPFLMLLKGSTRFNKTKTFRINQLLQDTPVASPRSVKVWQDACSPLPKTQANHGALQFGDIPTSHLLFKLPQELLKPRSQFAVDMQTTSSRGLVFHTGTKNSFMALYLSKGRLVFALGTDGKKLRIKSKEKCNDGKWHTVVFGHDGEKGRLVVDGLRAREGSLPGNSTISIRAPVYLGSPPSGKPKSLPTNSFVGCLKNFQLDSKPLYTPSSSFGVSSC

T7: laminin-derived peptide α5_(3300-3330) (human) (UniProt O15230)
T7 sequence (peptide): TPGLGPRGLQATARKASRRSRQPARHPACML

T8: laminin-derived peptide α3_(3043-3067) (human) (UniProt Q16787)
T8 sequence (peptide): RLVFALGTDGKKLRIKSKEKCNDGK

T9: laminin-derived peptide α5_(3417-3436) (human) (UniProt O15230)
T9 sequence (peptide): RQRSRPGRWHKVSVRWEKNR

B1: placental growth factor (PlGF)-2 (ligand, UniProt P49763-3 19-170)
chain: LPAVPPQQWALSAGNGSSEVEVVPFQEVWGRSYCRALERLVDVVSEYPSEVEHMFSPSCVSLLRCTGCCGDENLHCVPVETANVTMQLLKIRSGDRPSYVELTFSQHVRCECRPLREKMKPERRRPKGRGKRRREKQRPTDCHLCGDAVPRR
B2: recombinant human syndecan-1 (receptor, UniProt P18827 23-254)
chain: QIVATNLPPEDQDGSGDDSDNFSGSGAGALQDITLSQQTPSTWKDTQLLTAIPTSPEPTGLEATAASTSTLPAGEGPKEGEAVVLPEVEPGLTAREQEATPRPRETTQLPTTHLASTTTATTAQEPATSHPHRDMQPGHHETSTPAGPSQADLHTPHTEDGGPSATERAAEDGASSQLPAAEGSGEQDFTFETSGENTAVVAVEPDRRNQSPVDQGATGASQGLLDRKEVLG
B3: recombinant human syndecan-4 (receptor, UniProt P31431 19-145)
chain: ESIRETEVIDPQDLLEGRYFSGALPDDEDVVGPGQESDDFELSGSGDLDDLEDSMIGPEVVHPLVPLDNHIPERAGSGSQVPTEPKKLEENEVIPKRISPVEESEDVSNKVSMSSTVQGSNIFERTE
B4: placental growth factor (PlGF)-1 (ligand, UniProt P49763-2 19-149)
chain: LPAVPPQQWALSAGNGSSEVEVVPFQEVWGRSYCRALERLVDVVSEYPSEVEHMFSPSCVSLLRCTGCCGDENLHCVPVETANVTMQLLKIRSGDRPSYVELTFSQHVRCECRPLREKMKPERCGDAVPRR

How the values were obtained:
Assay in all cases: ELISA
[1] = target: laminin-derived peptide α4_(1408-1434) (human) (UniProt Q16363)
[2] = target: laminin-derived peptide α4_(1521-1543) (human) (UniProt Q16363)
laminin-221 = laminin-221 (UniProt P24043)
[3] = target: laminin alpha 4 LG domain recombinant protein (human) (UniProt Q16363)
[4] = target: T1, laminin-derived peptide α5_(3312-3325) (human)
[5] = target: T2, laminin-derived peptide α5_(3539-3550) (human)
[6] = target: T3, laminin-derived peptide α3_(3031-3043) (human)
[7] = target: T4, laminin-derived peptide α3_(2932-2951) (human)
[8] = target: T5, laminin alpha 5 LG domain recombinant protein (human)
[9] = target: T6, recombinant laminin α3_(2928-3150) protein (human)
[10] = target: T7, laminin-derived peptide α5_(3300-3330) (human)
[11] = target: T8, laminin-derived peptide α3_(3043-3067) (human)
[12] = target: T9, laminin-derived peptide α5_(3417-3436) (human)

| Binder | binding [1] | binding [2] | binding (laminin-221) | binding [3] | binding [4] | binding [5] | binding [6] | binding [7] | binding [8] | binding [9] | binding [10] | binding [11] | binding [12] |
| --- | --- | --- | --- | --- | --- | --- | --- | --- | --- | --- | --- | --- | --- |
| B1 | binds | binds | binds | binds | no binding (tested: 1 μg/mL) |  |  |  |  |  |  |  |  |
| B2 | binds | binds |  |  | binds weakly | no binding (tested: 1 μg/mL) | binds weakly | binds weakly |  |  |  |  |  |
| B3 | binds | binds |  |  | binds weakly | no binding (tested: 1 μg/mL) | binds weakly | binds weakly |  |  |  |  |  |
| B4 | no binding (tested: 1 μg/mL) | no binding (tested: 1 μg/mL) |  | no binding (tested: 1 μg/mL) | no binding (tested: 1 μg/mL) | no binding (tested: 1 μg/mL) | no binding (tested: 1 μg/mL) | no binding (tested: 1 μg/mL) | no binding (tested: 1 μg/mL) | no binding (tested: 1 μg/mL) | no binding (tested: 1 μg/mL) | no binding (tested: 1 μg/mL) | no binding (tested: 1 μg/mL) |
